# Experimental data: PubChem BioAssay AID1224828 (NIAID, 2016)
# Test: 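Knock-downs that increase or decrease LPS-induced p65 nuclear translocation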 (primary screen)
# Cell system: mouse RAW264.7 G9 macrophage reporter cells (GFP-p65, Tnf promoter-mCherry)
# Reagents: siRNA pool against mouse genes, 100 nM
# Timing: 2 days siRNA transfection, then 40 min LPS before fixation
# Conditions: LPS (Salmonella minnesota R595) at 10 ng/ml
# Measured: 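Microscopy ratio of nuclear to perinuclear-ring GFP-p65 signal, scaled to the plate median; gene score is the average of two replicate robust z-scores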
# Scale: p65 translocation robust z-score: higher = more nuclear NF-kappaB p65 after LPS than the plate median; nuclear/cytoplasmic p65 ratio: higher = more nuclear NF-kappaB p65
# Rule for the call: 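Called active when z exceeds 3.3 or falls under -1.56 (median of Tlr4 controls), giving activity score of at least 50; no calls for control wells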
# Calls: active = hit (p65 shift raised or lowered); inactive = no clear change
# Shown is one part, drawn at random, of about 17,000 reagents. 762 of them (4.5%) count as active. 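Active calls include both raised and lowered p65 entry, mostly lowered; wells with fewer than 50 cells lack a z-score.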 Raw values are not corrected between plates.
gene knocked down,p65 translocation robust z-score,"nuclear/cytoplasmic p65 ratio, rep 1","nuclear/cytoplasmic p65 ratio, rep 2",low cell count flag,call
Trappc4,0.8,1.36,1.28,enough cells to score,inactive
Gtf2f1,0.82,1.72,1.75,enough cells to score,inactive
B3gnt8,-0.36,1.63,1.52,enough cells to score,inactive
Tnip1,-1.46,1.37,1.26,enough cells to score,inactive
Dennd4b,-0.76,1.46,1.3,enough cells to score,inactive
Id4,0.38,1.54,1.38,enough cells to score,inactive
Cul5,0.13,1.56,1.34,enough cells to score,inactive
Parvg,1.48,1.62,1.43,enough cells to score,inactive
Saraf,,1.7,1.67,fewer than 50 cells per well; well left out of scoring,inactive
Slc22a22,-0.25,1.61,1.73,enough cells to score,inactive
Adam5,-0.05,1.53,1.74,enough cells to score,inactive
Spmap2,0.8,1.63,1.64,enough cells to score,inactive
Chchd7,-1.07,1.22,1.27,enough cells to score,inactive
Xrcc5,-1.38,1.34,1.29,enough cells to score,inactive
Sh2d1a,-1.52,1.33,1.34,enough cells to score,inactive
Arhgap23,-1.12,0.958,1.31,enough cells to score,inactive
Zbtb24,,1.39,1.52,fewer than 50 cells per well; well left out of scoring,inactive
Cabp7,-3.01,1.18,1.25,enough cells to score,active
Zdhhc12,,1.04,1.17,fewer than 50 cells per well; well left out of scoring,inactive
Zfp566,0.66,1.42,1.62,enough cells to score,inactive
Vmn1r76,-0.06,1.41,1.2,enough cells to score,inactive
Hk2,-0.44,1.7,1.32,enough cells to score,inactive
Mib1,2.28,1.72,1.65,enough cells to score,inactive
Ccnh,-0.36,1.49,1.33,enough cells to score,inactive
Nploc4,-0.65,1.51,1.58,enough cells to score,inactive
Wfdc15b,-0.3,1.32,1.57,enough cells to score,inactive
Per3,0.15,1.48,1.25,enough cells to score,inactive
Aptx,0.3,1.77,1.56,enough cells to score,inactive
Jak2,0.7,1.88,1.4,enough cells to score,inactive
Heph,0.61,1.86,1.52,enough cells to score,inactive
Frat1,,1.4,1.29,fewer than 50 cells per well; well left out of scoring,inactive
Gsta3,-3.19,1.17,1.08,enough cells to score,active
Pim1,0.02,1.66,1.4,enough cells to score,inactive
Snrpg,,1.55,1.16,fewer than 50 cells per well; well left out of scoring,inactive
G6pdx,-0.08,1.35,1.43,enough cells to score,inactive
Mapk6,0.62,1.71,1.45,enough cells to score,inactive

Continued; the last 4 above are carried over.
gene knocked down,p65 translocation robust z-score,"nuclear/cytoplasmic p65 ratio, rep 1","nuclear/cytoplasmic p65 ratio, rep 2",low cell count flag,call
Pim1,0.02,1.66,1.4,enough cells to score,inactive
Snrpg,,1.55,1.16,fewer than 50 cells per well; well left out of scoring,inactive
G6pdx,-0.08,1.35,1.43,enough cells to score,inactive
Mapk6,0.62,1.71,1.45,enough cells to score,inactive
Emb,,1.12,1.4,fewer than 50 cells per well; well left out of scoring,inactive
Defb12,1.12,1.71,1.73,enough cells to score,inactive
Gas6,,1.57,1.45,fewer than 50 cells per well; well left out of scoring,inactive
Pccb,-0.39,1.39,1.36,enough cells to score,inactive
Rnf152,1.76,1.67,1.71,enough cells to score,inactive
Defb10,,1.4,1.32,fewer than 50 cells per well; well left out of scoring,inactive
Gm4861,-0.36,1.41,1.46,enough cells to score,inactive
Or1n1b,-0.21,1.61,1.37,enough cells to score,inactive
Tprg1,-0.06,1.34,1.47,enough cells to score,inactive
Ndufs7,-0.54,1.71,1.5,enough cells to score,inactive
Taf6l,0.56,1.51,1.69,enough cells to score,inactive
Ighmbp2,-1.07,1.19,1.25,enough cells to score,inactive
Reep4,,1.15,1.22,fewer than 50 cells per well; well left out of scoring,inactive
Cox7c,0.06,1.53,1.85,enough cells to score,inactive
Brip1os,0.43,1.27,1.37,enough cells to score,inactive
Gpt2,-1.54,1.51,1.34,enough cells to score,inactive
Fbxo28,-1.02,1.43,1.39,enough cells to score,inactive
Barx2,-1.28,1.39,1.45,enough cells to score,inactive
Bex2,-1.07,1.26,1.41,enough cells to score,inactive
Rplp0,-0.78,1.4,1.47,enough cells to score,inactive
Or2y1g,-1.68,1.32,1.23,enough cells to score,active
Samtor,1.91,1.83,2.2,enough cells to score,inactive
Ccdc122,,1.49,1.61,fewer than 50 cells per well; well left out of scoring,inactive
